The series is described as follows: Initial response current value of sensor for glucose solution. The conditions noted are these: glucose 1,000 mg/dL; additive conc. 1.0-5.0 mM.

This note sets out measurements from patent US10761045B2, “Sensor, sensor system, method of manufacturing sensor, and method of measuring concentration of target substance” (PHC Holdings Corporation, priority 2010, dated 2020).

`c1nc[nH]n1` [1,2,4-Triazole]: the “Initial response current value (μA) Glucose conc.: 1,000 mg/dL” value (“Initial response current value” for short) is listed as 20 μA.

With `Cc1nccn1C` [1,2-Dimethylimidazole], the “Initial response current value” value stood at 5.9 μA.

In the case of `Nc1ncc[nH]1` [2-Aminoimidazole], the “Initial response current value” value worked out at 17.9 μA.

With `Cc1ncc[nH]1` [2-Methylimidazle, 2-methylimidazole], the “Initial response current value” value came to 15.9 μA.

Take `Nc1n[nH]c(N)n1` [3,5-Diamino-1,2,4-triazole]: the “Initial response current value” value was 25.7 μA.

With `Nc1nc[nH]n1` [3-Amino-1,2,4-triazole], the “Initial response current value” value is 27.3 μA.

With `OCc1nc[nH]c1CO` [4,5-Bis(hydroxymethyl) imidazole, 4,5-bis(hydroxymethyl)imidazole], the “Initial response current value” value was determined as 19.6 μA.

Turning to `Nn1cnnc1` [4-Amino-1,2,4-triazole], the “Initial response current value” value amounted to 23 μA.

As to `N=C(N)NCCC[C@H](N)C(=O)O` [Arginine, reference compound], the “Initial response current value” value worked out at 18.8 μA.

Turning to `NCCCCN` [Butanediamine, reference compound], the “Initial response current value” value amounted to 19.2 μA.

As for `NCCN` [Ethylenediamine, reference compound], the “Initial response current value” value is 21.9 μA.

For `NCCCCCCN` [Hexanediamine, reference compound], the “Initial response current value” value was found to be 20.5 μA.

Regarding `NCCc1c[nH]cn1` [Histamine], the “Initial response current value” value was determined as 23.1 μA.

As for `N[C@@H](Cc1c[nH]cn1)C(=O)O` [Histidine], the “Initial response current value” value is 16.7 μA.

Regarding `NCCCC[C@H](N)C(=O)O` [Lysine, reference compound], the “Initial response current value” value came to 16.2 μA.

Consider `NCCCCCN` [Pentanediamine, reference compound], for which the “Initial response current value” value is given as 18.9 μA.

With Ethyleneamine [reference compound], the “Initial response current value” value is 11.5 μA.

For Imidazole, the “Initial response current value” value was 20.7 μA.
